Source: patent publication US20260265334A1, “STAPLED PEPTIDES” (THE FLOREY INSTITUTE OF NEUROSCIENCE AND MENTAL HEALTH, priority 2023, published 2026)
Results are given in words; binding and its absence hold for the method and conditions named. Some results given as binding are weak or reduced against the parent protein; the word gives no strength. Each block holds one binder with its values, some of them ahead of it.

By UniProt entry, the sequences of proteins in these tests, tags left out.
UniProt Q8TDU9: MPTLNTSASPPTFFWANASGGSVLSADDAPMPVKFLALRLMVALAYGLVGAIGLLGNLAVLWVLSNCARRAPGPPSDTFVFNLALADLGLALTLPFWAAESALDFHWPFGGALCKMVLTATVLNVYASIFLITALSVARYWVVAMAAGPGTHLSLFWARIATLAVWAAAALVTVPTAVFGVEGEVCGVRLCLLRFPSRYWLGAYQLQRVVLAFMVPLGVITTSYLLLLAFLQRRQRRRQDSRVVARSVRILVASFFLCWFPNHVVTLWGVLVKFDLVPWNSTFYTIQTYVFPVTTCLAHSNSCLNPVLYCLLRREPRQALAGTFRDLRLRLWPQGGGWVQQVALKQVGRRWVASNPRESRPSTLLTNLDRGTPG

What was measured:
[1] = target: LgBiT-RXFP4 (HEK-LgBiT-RXFP4 crude membrane fractions) (UniProt Q8TDU9); experiment: worded; the binding numbers for it are the SmBiT-R3/I5 pKi of Table 5
[2] = target: T1, RXFP3 (relaxin family peptide receptor 3) on CHO-K1-RXFP3 cells (UniProt Q9NSD7); experiment: competition with Eu-H3B1-22R on CHO-K1-RXFP3 cells
T1 sequence (looked up): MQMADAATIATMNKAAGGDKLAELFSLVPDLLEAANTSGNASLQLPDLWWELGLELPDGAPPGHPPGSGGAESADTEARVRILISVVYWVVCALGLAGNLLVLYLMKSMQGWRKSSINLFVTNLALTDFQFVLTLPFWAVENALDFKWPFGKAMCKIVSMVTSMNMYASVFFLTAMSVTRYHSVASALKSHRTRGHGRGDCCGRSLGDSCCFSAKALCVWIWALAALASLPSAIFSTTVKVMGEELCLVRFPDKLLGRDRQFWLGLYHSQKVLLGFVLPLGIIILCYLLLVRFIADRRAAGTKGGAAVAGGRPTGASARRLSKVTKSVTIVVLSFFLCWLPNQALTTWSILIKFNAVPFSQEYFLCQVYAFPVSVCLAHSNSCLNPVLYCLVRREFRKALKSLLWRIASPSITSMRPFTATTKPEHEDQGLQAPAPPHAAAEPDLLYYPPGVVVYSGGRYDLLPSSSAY

- binding [1]: binds
B1: INSL5-A13: B7-24_G20/21 (two-chain G20/21 analogue) (ligand)
chain 1: CTDGASMKDLSALC
chain 2: CGLEYIRTVIYICGGSRW
notes: GlyGly at positions B20 and B21; also called Formula III

- binding [2]: binds
B2: H3B10-22R13/17EA (Formula XII, truncated form of H3B1-22R) (peptide)
peptide: SGREFIRAVIFTSR
notes: 14 residues
